# Data reported in paper PMC7862700.
# Protein sequences, listed by entry. Tags and fused reporters are not part of them. Lines headed by an entry give the natural chain unless they say otherwise; changes in a name come on top.
# UniProt P50549: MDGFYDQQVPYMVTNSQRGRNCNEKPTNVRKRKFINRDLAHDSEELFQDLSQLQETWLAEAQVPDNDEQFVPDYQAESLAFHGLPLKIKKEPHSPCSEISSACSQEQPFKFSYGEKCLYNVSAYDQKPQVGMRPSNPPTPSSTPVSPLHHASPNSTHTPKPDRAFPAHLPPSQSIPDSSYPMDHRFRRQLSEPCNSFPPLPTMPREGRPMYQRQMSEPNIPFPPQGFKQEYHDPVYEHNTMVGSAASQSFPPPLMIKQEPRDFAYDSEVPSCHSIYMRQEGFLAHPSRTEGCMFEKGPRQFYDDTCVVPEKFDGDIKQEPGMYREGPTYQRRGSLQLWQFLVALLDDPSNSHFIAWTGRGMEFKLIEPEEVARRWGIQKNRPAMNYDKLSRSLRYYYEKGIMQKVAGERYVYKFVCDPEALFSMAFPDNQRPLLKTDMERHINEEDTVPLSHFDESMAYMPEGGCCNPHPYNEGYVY
# UniProt P32519: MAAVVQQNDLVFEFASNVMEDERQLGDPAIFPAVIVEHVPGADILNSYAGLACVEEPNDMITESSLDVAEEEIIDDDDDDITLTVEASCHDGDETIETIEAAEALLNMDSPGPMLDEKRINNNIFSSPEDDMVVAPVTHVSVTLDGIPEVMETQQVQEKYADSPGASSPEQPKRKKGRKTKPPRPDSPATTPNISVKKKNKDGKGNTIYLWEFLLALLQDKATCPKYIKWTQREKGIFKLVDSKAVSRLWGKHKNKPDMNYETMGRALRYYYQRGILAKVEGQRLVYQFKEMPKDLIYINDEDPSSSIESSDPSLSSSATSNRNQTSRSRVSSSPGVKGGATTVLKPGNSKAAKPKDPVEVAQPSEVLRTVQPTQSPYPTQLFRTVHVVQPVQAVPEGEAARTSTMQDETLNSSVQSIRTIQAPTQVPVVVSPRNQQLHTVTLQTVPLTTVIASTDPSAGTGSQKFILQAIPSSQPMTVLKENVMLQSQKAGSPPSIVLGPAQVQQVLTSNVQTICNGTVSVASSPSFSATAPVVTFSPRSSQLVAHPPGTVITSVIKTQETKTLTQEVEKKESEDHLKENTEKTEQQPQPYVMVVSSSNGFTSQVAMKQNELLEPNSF
# This is a selection; strong and weak results do not stand in their true shares. For part of these data: At the low end of the ranking the order means little. The list shows a part of the results. For part of these data: The exact form of the protein is not confirmed.
# Columns and labels:
# Assay in all cases: DAPPL (digital affinity profiling via proximity ligation, sequencing)
# Settings in all cases: 10 mM Tris-HCl pH 7.5, 50 mM NaCl, 1 mM DTT, 4% glycerol, room temperature, 30 min; GST-TFs on glutathione beads, 16-mer random dsDNA library, 0.1% …; high values mean tight binding; double strand, one strand shown; scale: fold enrichment (6-mer frequency, TF over GST control)
# [1] = target: T1, ELK4 (UniProt P28324-2)
# T1 sequence: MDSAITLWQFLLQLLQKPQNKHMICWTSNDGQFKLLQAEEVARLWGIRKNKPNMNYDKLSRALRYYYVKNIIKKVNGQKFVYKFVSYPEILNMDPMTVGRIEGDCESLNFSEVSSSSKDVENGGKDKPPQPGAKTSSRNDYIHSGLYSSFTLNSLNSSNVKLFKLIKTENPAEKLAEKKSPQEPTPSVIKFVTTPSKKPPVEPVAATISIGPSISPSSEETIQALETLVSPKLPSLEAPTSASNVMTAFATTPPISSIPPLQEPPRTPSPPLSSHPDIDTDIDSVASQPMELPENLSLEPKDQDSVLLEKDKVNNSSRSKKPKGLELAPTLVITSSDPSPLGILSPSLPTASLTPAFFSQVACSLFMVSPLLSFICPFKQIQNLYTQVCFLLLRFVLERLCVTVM
# [2] = target: T2, ETV4 (UniProt P43268)
# T2 sequence: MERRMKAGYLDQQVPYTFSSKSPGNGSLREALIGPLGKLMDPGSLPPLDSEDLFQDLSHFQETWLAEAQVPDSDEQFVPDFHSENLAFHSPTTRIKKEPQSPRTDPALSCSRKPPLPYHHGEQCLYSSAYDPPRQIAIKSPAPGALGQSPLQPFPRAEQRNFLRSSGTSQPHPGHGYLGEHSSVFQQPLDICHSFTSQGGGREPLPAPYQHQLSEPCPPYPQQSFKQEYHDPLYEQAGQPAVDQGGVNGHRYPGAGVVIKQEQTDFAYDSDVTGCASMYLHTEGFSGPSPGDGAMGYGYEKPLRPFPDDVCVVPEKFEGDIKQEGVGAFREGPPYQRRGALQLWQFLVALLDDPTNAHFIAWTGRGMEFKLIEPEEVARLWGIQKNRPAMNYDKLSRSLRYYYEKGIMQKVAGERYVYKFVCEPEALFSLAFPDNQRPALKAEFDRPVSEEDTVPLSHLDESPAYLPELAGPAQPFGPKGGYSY
# [3] = target: ETV1 (UniProt P50549)
# [4] = target: T3, ERF (UniProt P50548)
# T3 sequence: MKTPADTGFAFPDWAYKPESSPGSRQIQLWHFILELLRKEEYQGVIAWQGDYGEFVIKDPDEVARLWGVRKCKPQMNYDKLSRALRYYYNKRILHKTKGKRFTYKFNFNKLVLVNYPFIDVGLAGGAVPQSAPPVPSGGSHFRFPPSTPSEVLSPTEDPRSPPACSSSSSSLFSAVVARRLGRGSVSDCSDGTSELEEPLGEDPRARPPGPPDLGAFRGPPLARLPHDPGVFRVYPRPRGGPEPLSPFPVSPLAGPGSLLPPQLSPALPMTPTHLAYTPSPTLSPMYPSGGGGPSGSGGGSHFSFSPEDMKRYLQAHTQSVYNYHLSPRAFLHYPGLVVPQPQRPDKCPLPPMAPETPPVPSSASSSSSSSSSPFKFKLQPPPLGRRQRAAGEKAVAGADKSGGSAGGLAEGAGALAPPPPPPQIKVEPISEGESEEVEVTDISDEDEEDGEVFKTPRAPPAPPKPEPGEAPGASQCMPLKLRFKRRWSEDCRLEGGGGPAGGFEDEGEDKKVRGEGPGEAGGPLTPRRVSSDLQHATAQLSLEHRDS
# [5] = target: ELF1 (UniProt P32519)
# [6] = target: T4, ERG (UniProt P11308)
# T4 sequence: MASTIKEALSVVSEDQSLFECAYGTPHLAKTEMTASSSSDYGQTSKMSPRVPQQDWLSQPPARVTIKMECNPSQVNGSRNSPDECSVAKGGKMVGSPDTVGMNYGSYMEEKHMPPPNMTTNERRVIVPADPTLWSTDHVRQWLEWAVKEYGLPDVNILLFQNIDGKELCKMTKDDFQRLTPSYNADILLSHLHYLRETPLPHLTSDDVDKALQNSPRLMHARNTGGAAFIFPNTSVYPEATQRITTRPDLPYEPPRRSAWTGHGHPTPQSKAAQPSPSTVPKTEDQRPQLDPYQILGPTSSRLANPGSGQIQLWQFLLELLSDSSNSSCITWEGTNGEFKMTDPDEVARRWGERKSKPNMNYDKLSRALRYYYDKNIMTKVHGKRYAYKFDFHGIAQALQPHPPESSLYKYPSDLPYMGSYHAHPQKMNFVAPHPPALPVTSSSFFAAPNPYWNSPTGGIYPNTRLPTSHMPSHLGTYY
sequence,measurement,setting,value
TACATG,binding signal,[1],1.24
same,binding signal,[2],1.29
same,binding signal,[3],1.21
same,binding signal,[4],1.34
GTTTTC,binding signal,[1],0.997
same,binding signal,[2],1.23
same,binding signal,[3],1.13
same,binding signal,[4],1.34
TGAATT,binding signal,[1],1.01
same,binding signal,[2],1.19
same,binding signal,[3],1.23
GCTTCG,binding signal,[1],1.38
same,binding signal,[2],1.32
same,binding signal,[3],1.29
ATTCAG,binding signal,[1],1.08
same,binding signal,[2],1.14
same,binding signal,[3],1.07
GGCTCT,binding signal,[1],1.22
same,binding signal,[2],1.25
same,binding signal,[3],1.42
GGTATA,binding signal,[1],1.1
same,binding signal,[2],1.11
same,binding signal,[3],1.11
TACTAG,binding signal,[1],0.976
same,binding signal,[2],1
same,binding signal,[3],0.902
TTTTGA,binding signal,[1],1.22
same,binding signal,[2],1.14
same,binding signal,[3],1.13
CTAAAA,binding signal,[1],1.21
same,binding signal,[2],1.09
same,binding signal,[3],1.19
TAGTCT,binding signal,[1],0.947
same,binding signal,[2],1.13
same,binding signal,[3],1.01
same,binding signal,[4],1.17
ACTTCC,binding signal,[1],6.63
same,binding signal,[2],10
same,binding signal,[4],7.03
TAAAGT,binding signal,[5],1.18
same,binding signal,[1],1.27
same,binding signal,[2],1.16
TTGATA,binding signal,[1],1.42
same,binding signal,[2],1.23
same,binding signal,[4],1.24
CTGTTT,binding signal,[1],1.29
same,binding signal,[2],1.4
same,binding signal,[4],1.37
ATTTCC,binding signal,[1],3.35
same,binding signal,[2],3.91
same,binding signal,[4],3.64
TAACAT,binding signal,[5],1.35
same,binding signal,[1],1.29
same,binding signal,[2],1.28
TAACGA,binding signal,[1],1.09
same,binding signal,[2],1.12
same,binding signal,[4],1.03
ATTGAC,binding signal,[5],1.19
same,binding signal,[1],1.34
same,binding signal,[2],1.18
CCTGGG,binding signal,[1],1.08
same,binding signal,[2],1.38
same,binding signal,[4],0.976
CCCCAT,binding signal,[5],1.31
same,binding signal,[1],1.22
same,binding signal,[2],1.36
AACTCG,binding signal,[1],1.29
same,binding signal,[2],1.34
same,binding signal,[4],1.44
GCCCCT,binding signal,[1],1.37
same,binding signal,[2],1.41
same,binding signal,[4],1.27
ATACCA,binding signal,[5],1.06
same,binding signal,[1],0.992
same,binding signal,[2],1.03
AAACCA,binding signal,[5],1.18
same,binding signal,[1],1.26
same,binding signal,[2],1.19
same,binding signal,[4],1.16
ACTGCT,binding signal,[1],1.54
same,binding signal,[2],1.39
same,binding signal,[4],1.27
AAATTC,binding signal,[1],1.15
same,binding signal,[2],1.3
same,binding signal,[4],1.29
GTAACT,binding signal,[5],1.22
same,binding signal,[1],1.26
same,binding signal,[2],1.15
same,binding signal,[4],1.22
CTTTAA,binding signal,[1],1.28
same,binding signal,[2],1.25
same,binding signal,[4],1.32
TGGTAC,binding signal,[1],1.11
same,binding signal,[2],1.2
same,binding signal,[4],1.11
CATGAA,binding signal,[5],1.06
same,binding signal,[1],1.11
same,binding signal,[2],1.08
same,binding signal,[4],1.02
TGCTCT,binding signal,[5],1.34
same,binding signal,[1],1.38
same,binding signal,[2],1.45
same,binding signal,[3],1.33
CGGCTT,binding signal,[5],1.13
same,binding signal,[1],1.09
same,binding signal,[2],1.15
same,binding signal,[3],1.2
CACATT,binding signal,[5],1.21
same,binding signal,[1],1.13
same,binding signal,[2],1.21
ATCGAA,binding signal,[5],1.14
same,binding signal,[1],1.14
same,binding signal,[2],1.1
GATGAC,binding signal,[1],1.42
same,binding signal,[2],1.63
same,binding signal,[4],1.45
TCTTTG,binding signal,[5],1.25
same,binding signal,[1],1.2
same,binding signal,[2],1.15
same,binding signal,[3],1.1
TAACTC,binding signal,[5],1.29
same,binding signal,[1],1.34
same,binding signal,[2],1.19
same,binding signal,[4],1.29
TACACG,binding signal,[5],1.16
same,binding signal,[1],1.21
same,binding signal,[2],1.15
same,binding signal,[3],1.16
CCGCTA,binding signal,[1],1.3
same,binding signal,[2],1.33
same,binding signal,[4],1.38
ACCGAT,binding signal,[5],1.17
same,binding signal,[1],1.15
same,binding signal,[2],1.21
same,binding signal,[3],1.12
CGATAC,binding signal,[5],1.19
same,binding signal,[1],1.15
same,binding signal,[2],1.14
AACGTT,binding signal,[1],1.02
same,binding signal,[2],1.14
same,binding signal,[4],0.966
TTTGCT,binding signal,[5],1.21
same,binding signal,[1],1.36
same,binding signal,[2],1.25
same,binding signal,[4],1.39
TACAAG,binding signal,[5],1.06
same,binding signal,[1],1.16
same,binding signal,[2],1.04
same,binding signal,[3],1.06
ATGACG,binding signal,[5],1.34
same,binding signal,[1],1.47
same,binding signal,[2],1.4
ACCTGC,binding signal,[5],1.54
same,binding signal,[1],1.59
same,binding signal,[2],1.55
same,binding signal,[3],1.57
TGCTCA,binding signal,[1],1.24
same,binding signal,[2],1.42
same,binding signal,[4],1.5
TCGATT,binding signal,[5],1.12
same,binding signal,[1],1.14
same,binding signal,[2],0.984
TGCCGC,binding signal,[1],1.23
same,binding signal,[2],1.27
same,binding signal,[4],1.32
TGAACC,binding signal,[2],1.14
CCGATC,binding signal,[2],1.28
GGTTTA,binding signal,[2],1.05
TATGGC,binding signal,[2],1.3
GCTTAT,binding signal,[2],1.24
ATACGT,binding signal,[2],1.02
AGATCC,binding signal,[2],1.14
CTCAAA,binding signal,[2],1.2
TGATGG,binding signal,[2],1.34
TACTAC,binding signal,[2],1.21
AACCTT,binding signal,[2],1.3
GGCTTC,binding signal,[2],1.69
TTACCC,binding signal,[2],1.34
TTGTCC,binding signal,[2],1.39
GATATA,binding signal,[2],1.04
CAAATA,binding signal,[2],1.07
CTATTC,binding signal,[2],1.26
CATATT,binding signal,[2],1.24
ATCTGT,binding signal,[2],1.15
CTTTCC,binding signal,[2],1.92
TTAACA,binding signal,[2],1.13
ATCACC,binding signal,[2],1.14
ACTCCC,binding signal,[2],1.38
ATGTCC,binding signal,[2],1.59
TGGATG,binding signal,[2],1.36
TACTTC,binding signal,[2],4.3
GATTAC,binding signal,[2],1.1
TTGGCC,binding signal,[2],1.21
CAATCA,binding signal,[2],1.03
TGGTTT,binding signal,[2],1.69
ACTAAC,binding signal,[2],1.33
CCGCCT,binding signal,[2],1.59
GTCTTA,binding signal,[2],1.13
TTTAAA,binding signal,[2],1.15
TATAAC,binding signal,[2],1.27
CTTGAT,binding signal,[2],1.42
TATGAA,binding signal,[2],1.2
TCTGAT,binding signal,[2],1.25
CTTACC,binding signal,[2],1.18
AGTTCC,binding signal,[6],2.2
same,binding signal,[2],2.03
GTTTGG,binding signal,[6],0.988
same,binding signal,[2],1.05
ACCCGC,binding signal,[6],1.21
same,binding signal,[2],1.25

# A stretch of the results above:
sequence,measurement,setting,value
TACACG,binding signal,[2],1.15
same,binding signal,[3],1.16
CCGCTA,binding signal,[1],1.3
same,binding signal,[2],1.33
same,binding signal,[4],1.38
ACCGAT,binding signal,[5],1.17
same,binding signal,[1],1.15

# Rewritten tab-delimited: entries from further up.
sequence	measurement	setting	value
GGCTCT	binding signal	[2]	1.25
TAACGA	binding signal	[2]	1.12
CCTGGG	binding signal	[1]	1.08
AAATTC	binding signal	[1]	1.15
CTTTAA	binding signal	[1]	1.28
GATGAC	binding signal	[2]	1.63
